Test results taken from PubChem BioAssay AID1688 (National Center for Advancing Translational Sciences (NCATS), 2009).
“And” between values parts separate entries of the source, which are not always exact repeats. Identical values can stand only once. About 2,400 (1.1%) of roughly 220,000 compounds were called active. The shares of active, inactive and inconclusive entries below differ from those in the screen. Calls follow the shape of the dose curve; as a rule, active = well fitted inhibition curve with a large enough effect; inconclusive = small, poorly fitted or top-dose-only effect, or effect the other way; inactive = no such curve, though single readings can be large or run the other way. Potencies of inconclusive entries are doubtful fits and often do not repeat. Some compounds were tested as several samples or in several runs, with calls that do not always agree.

Test: qHTS Multiplex Assay to Identify Dual Action Probes in a Cell Model of Huntington: Aggregate Formation (GFP); also: nearly all actives have a fitted effect of over 60% in size
Conditions: PC12 HttQ103-GFP aggregates, Acumen cytometry, 40 h; activity change, negative = inhibition: at 46.1 µM (top of the series) unless noted
Method in brief: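 Quantitative HTS on tebufenozide-induced (100 nM) PC12 cells stably expressing polyQ103 Huntingtin exon 1–GFP. Reduction of bright GFP aggregates, detected by laser scanning cytometry after lysis, identified actives across the titration.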
% is scaled to controls: 0 for no effect and ±100 for the full control effect; potency is read from the fitted curve at half-maximal effect.

Q: Which Potency does the source give for `Cc1cc(C)c2ccc(N)nc2c1O` here?
A: The Potency was active: 8.91 µM.

Q: For `Cc1onc(-c2ccccc2)c1C(=O)NNC(=S)NC(=O)c1ccc(Br)cc1`, which Potency is on record?
A: Its Potency is inconclusive: 6.31 µM [inhibitor, full curve, poor fit].

Q: For `CN(C)CCN(C(=O)/C=C/c1cccs1)c1nc2ccc(F)cc2s1`, which Potency is on record?
A: Its Potency is inconclusive: 3.16 µM [inhibitor, single point].

Q: With `O=C(NC(=S)Nc1ccc(S(=O)(=O)Nc2nccs2)cc1)c1ccccc1` as the compound, how does the Potency read?
A: Its Potency is “inactive”.

Q: With `CCCC(C(=O)NCc1ccco1)N(C(=O)CNS(=O)(=O)c1ccccc1)c1ccccc1OC` (stereo not given) as the compound, how does the Potency read?
A: The Potency was inconclusive: 0.112 µM [inhibitor, full curve, poor fit].

Q: Which activity change, negative = inhibition does the source give for `Cc1ccc(C)[n+](CC(=O)N2CCCCC2)c1` here?
A: Its activity change, negative = inhibition is inactive: 10.7% [at 9.22 µM].

Q: With `CC(C)(C)OC(=O)N1CCN(c2ccc(CNC(=O)c3ccc(Cl)cc3)cc2)CC1` as the compound, how does the Potency read?
A: Its Potency is inconclusive: 14.1 µM [inhibitor, single point].

Q: With `CC1=CCC[C@@H]2[C@@](C)(CC/C(C)=C/C(=O)O)[C@H](C)CC[C@@]12C` as the compound, how does the Potency read?
A: The Potency was “inactive”.

Q: Which Potency does the source give for `COC(=O)CN1C(=O)C(C)(C)Oc2ccc(C(=O)NC3CC3)cc21` here?
A: Its Potency is “inactive”.

Q: For `Cc1c(NC(=O)CCCCCN2C(=O)c3ccccc3C2=O)c(=O)n(-c2ccccc2)n1C`, which Potency is on record?
A: The Potency was “inactive”.

Q: With `Cc1ccc(-c2n[nH]c(=S)n2/N=C/c2ccncc2)cc1` as the compound, how does the Potency read?
A: Its Potency is inconclusive: 12.6 µM [inhibitor, partial curve].

Q: Which Potency does the source give for `O=C(CN1CCN(S(=O)(=O)c2ccc3ccccc3c2)CC1)Nc1ccc2c(c1)CCC2` here?
A: Its Potency is inconclusive: 35.5 µM [activator, single point].

Q: With `CC(=O)c1sc(NC(=O)c2ccc(Cn3cc(Br)cn3)o2)nc1C` as the compound, how does the Potency read?
A: The Potency was inconclusive: 5.62 µM [activator, single point].

Q: For `O=C(NCc1cccs1)C(=O)NCC1OCCCN1S(=O)(=O)c1cccs1` (stereo not given), which Potency is on record?
A: The Potency was “inactive”.

Q: Which Potency does the source give for `Cc1ccc(CN2CCN(CC(=O)N/N=C/c3c[nH]c4ccccc34)CC2)cc1` here?
A: Its Potency is inconclusive: 5.62 µM [inhibitor, single point].

Q: With `COc1ccc(C(=O)NN/C(=N/S(=O)(=O)c2ccc(C)cc2)c2ccccc2)cc1` as the compound, how does the activity change, negative = inhibition read?
A: Its activity change, negative = inhibition is inactive: -1.34% [at 9.22 µM].

Q: For `O=C(Nc1nnc(-c2ccccn2)o1)c1cccc(Br)c1`, which Potency is on record?
A: Its Potency is inconclusive: 2.51 µM [inhibitor, full curve].

Q: With `CCN(CC)CCNC(=O)C(C(=O)c1ccccc1)n1ccccc1=O` (stereo not given) as the compound, how does the Potency read?
A: The Potency was inconclusive: 5.62 µM [inhibitor, single point].

Q: Which Potency does the source give for `Cc1cc(N/N=C/c2ccc([N+](=O)[O-])o2)nc2ccccc12` here?
A: Its Potency is inconclusive: 5.62 µM [activator, single point].

Q: For `O=C(O)C1C2C=CC(C2)C1C(=O)NCCc1ccncc1` (stereo not given), which Potency is on record?
A: The Potency was inconclusive: 0.562 µM [inhibitor, partial curve, poor fit].

Q: With `Cc1oc2cc(O)ccc2c(=O)c1Oc1ccc2ccccc2c1` as the compound, how does the Potency read?
A: Its Potency is inconclusive: 15.8 µM [inhibitor, single point].

Q: Which Potency does the source give for `O=C(CCc1nc2ccccc2c(=O)[nH]1)Nc1ccc(F)c([N+](=O)[O-])c1` here?
A: The Potency was inconclusive: 0.562 µM [activator, full curve, poor fit].

Q: With `N#CC(c1ccccc1)c1ccc(=O)[nH]n1` (stereo not given) as the compound, how does the Potency read?
A: The Potency was inconclusive: 0.355 µM [activator, full curve, poor fit].

Q: Which Potency does the source give for `CCOc1cccc(C(=O)N(Cc2ccco2)C2CCS(=O)(=O)C2)c1` (stereo not given) here?
A: The Potency was inconclusive: 1.26 µM [inhibitor, single point].

Q: For `N[C@H](Cc1ccc(O)c(O)c1)C(=O)O`, which Potency is on record?
A: Its Potency is inconclusive: 31.6 µM [inhibitor, single point].

Q: For `CCNc1ccc2noc3c2c1C(=O)c1ccccc1-3`, which Potency is on record?
A: Its Potency is “inactive”.

Q: Which Potency does the source give for `Cc1cccc(C(=O)c2cnc3ccccc3c2-c2ccccc2)c1` here?
A: The Potency was inconclusive: 14.1 µM [inhibitor, single point].

Q: With `COC(=O)c1cc(OC)c(OC)cc1NC(=O)CN1CCCCC1` as the compound, how does the Potency read?
A: The Potency was active: 0.631 µM.

Q: Which Potency does the source give for `Cc1cc(C(=O)N/N=C/c2cccc([N+](=O)[O-])c2O)n[nH]1` here?
A: The Potency was inconclusive: 20 µM [inhibitor, single point].

Q: Which Potency does the source give for `CCCCNC(=S)N1CCN(C(c2ccccc2)c2ccccc2)CC1` here?
A: Its Potency is inconclusive: 15.8 µM [inhibitor, single point].

Q: For `O=C1CN(C(=O)c2ccccc2)c2ccccc2N1`, which Potency is on record?
A: Its Potency is inconclusive: 0.562 µM [inhibitor, full curve].

Q: For `COc1cccc(S(=O)(=O)Nc2ccc3sc(C)nc3c2)c1`, which Potency is on record?
A: Its Potency is inconclusive: 11.2 µM [inhibitor, partial curve].

Q: With `CCOC(=O)C(C)Oc1cccc2c(=O)n(CC(=O)N3CCCc4ccccc43)ccc12` (stereo not given) as the compound, how does the Potency read?
A: Its Potency is “inactive”.

Q: With `Cc1cc(OCC[N+]2(C)CCCCC2)nc2ccccc12` as the compound, how does the Potency read?
A: The Potency was inconclusive: 2.24 µM [inhibitor, partial curve].

Q: With `O=S(=O)(Cc1ccccc1)N1CCN(Cc2ccc3c(c2)OCO3)CC1` as the compound, how does the Potency read?
A: Its Potency is “inactive”.

Q: Which activity change, negative = inhibition does the source give for `O=c1[nH]cnc(O)c1C(c1cccc([N+](=O)[O-])c1)c1c(O)nc[nH]c1=O` here?
A: The activity change, negative = inhibition was inactive: 11.6% [at 9.22 µM].

Q: Which Potency does the source give for `CC(=O)Oc1ccc2c(=O)c(Oc3ccccc3)coc2c1OC(C)=O` here?
A: The Potency was inconclusive: 10 µM [inhibitor, partial curve].

Q: For `Cc1ccc(S(=O)(=O)NCc2ccc(C(=O)NCCCN3CCC(Cc4ccccc4)CC3)cc2)cc1`, which Potency is on record?
A: Its Potency is inconclusive: 35.5 µM [inhibitor, single point].

Q: Which activity change, negative = inhibition does the source give for `O=C(Nc1ccccc1)c1cc2ccc3ccccc3c2s1` here?
A: The activity change, negative = inhibition was inactive: -27.6% [at 9.22 µM].

Q: Which Potency does the source give for `O=S(=O)(c1cccc2cnccc12)N1CCCNCC1` here?
A: Its Potency is “inactive and active: 12.6 µM”.

Q: With `COc1c(C)cc(Br)cc1C(=O)Nc1cccc(NC(=O)c2ccco2)c1` as the compound, how does the Potency read?
A: The Potency was inconclusive: 20 µM [inhibitor, single point].

Q: With `CCOc1cc(/C=C2/SC(=S)NC2=O)ccc1OC(=O)c1ccco1` as the compound, how does the Potency read?
A: The Potency was active: 14.1 µM.

Q: With `N/C(=N\c1nc2ccccc2o1)NC(=O)c1ccccc1NC(=O)c1ccccc1` as the compound, how does the Potency read?
A: The Potency was inconclusive: 0.562 µM [inhibitor, partial curve, poor fit].

Q: With `C/C(=N/N1CCN(c2ccccc2)CC1)c1cccc([N+](=O)[O-])c1` as the compound, how does the Potency read?
A: Its Potency is “inactive”.

Q: For `COc1ccc(-c2cc(C(F)(F)F)nc(S(C)(=O)=O)n2)cc1OC`, which Potency is on record?
A: The Potency was active: 10 µM.

Q: Which Potency does the source give for `Cc1ccccc1OCCOc1cccc(/C=N/NC(=O)Cc2nnc(N)s2)c1` here?
A: The Potency was inconclusive: 28.2 µM [inhibitor, single point].

Q: With `COc1ccc2[nH]c3c(=O)n(N)c(C)nc3c2c1` as the compound, how does the Potency read?
A: The Potency was inconclusive: 7.08 µM [inhibitor, partial curve].

Q: For `CSC1CCCCC1(O)CSc1nc2c(cc1C#N)CCCC2` (stereo not given), which Potency is on record?
A: The Potency was “inactive”.

Q: With `Cc1ccccc1/[N+]([O-])=C/c1ccncc1` as the compound, how does the Potency read?
A: The Potency was inconclusive: 25.1 µM [activator, partial curve].

Q: Which Potency does the source give for `COc1cccc(/C=N/NC(=O)CNC(=O)c2ccc3c(c2)OCCO3)c1O` here?
A: Its Potency is active: 35.5 µM.

Q: Which Potency does the source give for `Cc1nn(-c2ccccc2)c2sc(C(=O)OCn3nnc4ccccc4c3=O)cc12` here?
A: Its Potency is inconclusive: 10 µM [activator, partial curve].

Q: With `Cc1ccc(CCC(=O)Nc2ncc(Cc3cccc(Cl)c3Cl)s2)o1` as the compound, how does the Potency read?
A: The Potency was inconclusive: 5.01 µM [inhibitor, single point].

Q: For `Cc1ccc(-c2nnn(C(C)C(=O)N3c4ccccc4CCc4ccccc43)n2)cc1` (stereo not given), which Potency is on record?
A: The Potency was “inactive”.

Q: Which activity change, negative = inhibition does the source give for `COC(=O)C1=NNC2(c3ccc(C)cc3)C(=O)N(c3ccc(C)cc3)C(=O)C12` (stereo not given) here?
A: Its activity change, negative = inhibition is inactive: -11.6% [at 9.22 µM].

Q: Which Potency does the source give for `O=C(c1ccccc1)c1coc2ccc(O)c(CN3CCOCC3)c12` here?
A: Its Potency is “inactive”.

Q: Which Potency does the source give for `O=c1c2c(nc3nc(CCc4ccccc4)[nH]n13)CCC2` here?
A: The Potency was inconclusive: 1.26 µM [activator, single point].

Q: For `CC(=O)c1ccc2c3c(cccc13)CC2`, which Potency is on record?
A: Its Potency is “inactive”.

Q: For `CC(C)CN(C#N)c1nc(N2CCOCC2)nc(N2CCOCC2)n1`, which Potency is on record?
A: The Potency was inconclusive: 7.94 µM [inhibitor, partial curve].

Q: With `CCOC(=O)CC(=O)CSc1ccc2nnc(-c3ccc(C)cc3)n2n1` as the compound, how does the Potency read?
A: The Potency was “inactive”.

Q: With `C=CCc1c(C)c(C#N)c2nc3ccccc3n2c1NCCN(C)C` as the compound, how does the Potency read?
A: Its Potency is inconclusive: 15.8 µM [activator, partial curve].

Q: Which Potency does the source give for `COCCN=c1scc(-c2cc(OC)ccc2OC)n1/N=C/c1c[nH]c2ccccc12` here?
A: Its Potency is inconclusive: 35.5 µM [inhibitor, single point].

Q: With `Cc1ccc2nc(-c3ccc(SCC(=O)N4CCc5ccccc54)nc3)[nH]c2c1` as the compound, how does the Potency read?
A: The Potency was inconclusive: 2.51 µM [activator, full curve, poor fit].

Q: With `Cc1csc(=Nc2ccc(S(=O)(=O)N3CCOCC3)cc2)n1Cc1ccco1` as the compound, how does the Potency read?
A: Its Potency is inconclusive: 2.51 µM [inhibitor, single point].

Q: With `Fc1cnc(N2CCc3ccccc32)nc1N1CCc2ccccc21` as the compound, how does the Potency read?
A: The Potency was “inactive”.

Q: For `C/C(=N/OCO/N=C(/C)c1ccc(F)cc1)c1ccc(F)cc1`, which Potency is on record?
A: The Potency was “inactive”.

Q: With `CCCCOc1ccc(OCCNS(=O)(=O)N(C)C)cc1` as the compound, how does the Potency read?
A: Its Potency is inconclusive: 35.5 µM [inhibitor, single point].

Q: For `COC(=O)c1sc(NC(=O)c2ccc(Cn3cc(Cl)cn3)o2)c(C#N)c1C`, which Potency is on record?
A: The Potency was inconclusive: 35.5 µM [inhibitor, single point].

Q: For `COc1ccc(-c2ccc(SCC(=O)N3c4ccccc4CC3C)nn2)cc1OC` (stereo not given), which Potency is on record?
A: Its Potency is inconclusive: 35.5 µM [inhibitor, single point].

Q: Which Potency does the source give for `C/C(=N\NC(=O)c1cc(-c2cccnc2)nc2ccccc12)c1ccccc1O` here?
A: Its Potency is inconclusive: 1.26 µM [inhibitor, single point].

Q: Which Potency does the source give for `COc1ccc(C2=NN(C(=O)COc3ncnc4ccccc34)C(c3ccco3)C2)cc1` (stereo not given) here?
A: The Potency was inconclusive: 1 µM [activator, partial curve].
